Measurements taken from the supplement of paper PMC10331698.
± gives the standard deviation of the averaged measurements. Most values lie at the level of the controls, where differences are scatter.

What was measured:
Experiment in all cases: level (log10 ratio to DMSO vehicle control); higher = higher biomarker level / cell amount than vehicle control
[1] = compound: C=C(C)C(=O)OCCC(F)(F)C(F)(F)C(F)(F)C(F)(F)C(F)(F)C(F)(F)C(F)(F)C(F)(F)F [8:2 Fluorotelomer methacrylate]; conditions: in DMSO
Procedure: (§1)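 BioMAP Diversity Plus panel of 12 human primary cell co-culture systems (3C, 4H, LPS, SAg, BT, BF4T, BE3C, CASM3C, HDF3CGF, KF3CT, MyoF, Mphg). Compounds were added 1 h before stimulation and left for 24 h (MyoF 48 h; BT 72 h for soluble read-outs or 6 d for IgG). Biomarkers were read by ELISA, cytotoxicity by SRB, PBMC viability and proliferation by Alamar Blue. Each well value was divided by the mean of 8 DMSO control wells on the same plate and log10 transformed; duplicate blinded samples were tested at 4 concentrations.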

[2] = compound: O=S(=O)(O)C(F)(F)C(F)(F)OC(F)(F)C(F)(F)F [Perfluoro(2-ethoxyethane)sulfonic acid]; conditions: 2200 nM; in DMSO
Procedure: as §1

[3] = compound: NC(=O)C(F)(F)C(F)(F)C(F)(F)C(F)(F)F [Nonafluoropentanamide]; conditions: 2200 nM; in DMSO
Procedure: as §1

[4] = compound: C=C(C)C(=O)OCCC(F)(F)C(F)(F)C(F)(F)C(F)(F)C(F)(C(F)(F)F)C(F)(F)F [(Perfluoro-5-methylhexyl)ethyl 2-methylprop-2-enoate]; conditions: in DMSO
Procedure: as §1

[5] = compound: O=S(=O)(O)CCC(F)(F)C(F)(F)C(F)(F)C(F)(F)C(F)(F)C(F)(F)F [6:2 Fluorotelomer sulfonic acid]; conditions: in DMSO
Procedure: as §1

[6] = compound: O=C(O)CCC(F)(F)C(F)(F)C(F)(F)C(F)(F)C(F)(F)F [2H,2H,3H,3H-Perfluorooctanoic acid]; conditions: 2200 nM; in DMSO
Procedure: as §1

[7] = compound: NC(=O)C(F)(F)C(F)(F)C(F)(F)C(F)(F)C(N)=O [Octafluoroadipamide]; conditions: 2200 nM; in DMSO
Procedure: as §1

[8] = compound: OC(C(F)(F)F)(C(F)(F)F)C(O)(C(F)(F)F)C(F)(F)F [Perfluoropinacol]; conditions: in DMSO
Procedure: as §1

[9] = compound: O=C(O)C(F)(F)C(F)(F)C(=O)O [Tetrafluorosuccinic acid]; conditions: 2200 nM; in DMSO
Procedure: as §1

[10] = compound: O=C(O)C(F)(F)C(F)(F)C(F)(F)C(F)(F)C(F)(F)C(F)(F)C(F)(F)C(F)(F)Cl [9-Chloro-perfluorononanoic acid]; conditions: in DMSO
Procedure: as §1

[11] = compound: COC(=O)CCC(F)(F)C(F)(F)C(F)(F)C(F)(F)F [Methyl 2H,2H,3H,3H-perfluoroheptanoate]; conditions: 2200 nM; in DMSO
Procedure: as §1

[12] = compound: NS(=O)(=O)C(F)(F)C(F)(F)C(F)(F)C(F)(F)C(F)(F)C(F)(F)F [Perfluorohexanesulfonamide]; conditions: 2200 nM; in DMSO
Procedure: as §1

[13] = compound: OCCC(F)(F)C(F)(F)C(F)(F)C(F)(F)F [4:2 Fluorotelomer alcohol]; conditions: 2200 nM; in DMSO
Procedure: as §1

[14] = compound: FC(F)(F)C(F)(F)C(F)(F)C(F)(F)C(F)(F)CCI [1-Iodo-1H,1H,2H,2H-perfluoroheptane]; conditions: 2200 nM; in DMSO
Procedure: as §1

Test System | level (log10) ([1]; 740 nM) | level (log10) ([1]; 2200 nM) | level (log10) [2] | level (log10) [3] | level (log10) ([4]; 740 nM) | level (log10) ([4]; 2200 nM) | level (log10) ([4]; 6700 nM) | level (log10) ([4]; 20000 nM) | level (log10) ([5]; 2200 nM) | level (log10) ([5]; 6700 nM) | level (log10) ([5]; 20000 nM) | level (log10) ([5]; 60000 nM) | level (log10) [6] | level (log10) [7] | level (log10) ([8]; 2200 nM) | level (log10) ([8]; 6700 nM) | level (log10) ([8]; 20000 nM) | level (log10) [9] | level (log10) ([10]; 2200 nM) | level (log10) ([10]; 6700 nM) | level (log10) ([10]; 20000 nM) | level (log10) [11] | level (log10) [12] | level (log10) [13] | level (log10) [14]
HDF3CGF:CXCL8/IL-8 | 0.0065 ± 0.021 | -0.0235 ± 0.021 | -0.0025 ± 0.013 | -0.002 ± 0.0014 | -0.0065 ± 0.0092 | -0.0055 ± 0.0021 | -0.004 ± 0.0042 | 0.0025 ± 0.005 | 0.001 ± 0.013 | -0.01 ± 0.014 | -0.007 ± 0.013 | 0.008 ± 0.037 | -0.003 ± 0.0071 | 0.009 ± 0.021 | 0.0125 ± 0.0035 | 0.025 ± 0.0071 | 0.02 ± 0.0028 | 0.0035 ± 0.011 | -0.002 ± 0.013 | -0.0225 ± 0.011 | 0.0015 ± 0.005 | -0.0025 ± 0.022 | -0.001 ± 0.0042 | 0.0025 ± 0.0021 | -0.0015 ± 0.012
CASM3C:IL-6 | 0.034 ± 0.048 | -0.0065 ± 0.026 | 0.0105 ± 0.032 | 0.0715 ± 0.036 | 0.033 ± 0.088 | -0.041 ± 0.014 | -0.035 ± 0.0042 | 0.0345 ± 0.028 | 0.0115 ± 0.043 | -0.003 ± 0.011 | -0.014 ± 0.0014 | 0.006 ± 0.017 | 0.007 ± 0.037 | 0.0025 ± 0.054 | 0.01 ± 0.054 | -0.0045 ± 0.025 | 0.033 ± 0.0085 | 0.008 ± 0.052 | -0.002 ± 0.055 | -0.0115 ± 0.00071 | -0.0325 ± 0.019 | 0.0095 ± 0.052 | 0.003 ± 0.024 | -0.0085 ± 0.039 | -0.0305 ± 0.0035
BF4T:PAI-I | 0.0085 ± 0.013 | -0.007 ± 0.0085 | 0.0205 ± 0.022 | 0.0025 ± 0.018 | -0.0105 ± 0.023 | -0.018 ± 0.0014 | -0.01 ± 0.018 | -0.023 ± 0.0057 | 0.0015 ± 0.025 | 0.0075 ± 0.005 | -0.0235 ± 0.012 | -0.0265 ± 0.0078 | -0.004 ± 0.023 | -0.0005 ± 0.013 | -0.0035 ± 0.011 | -0.0315 ± 0.0035 | -0.0845 ± 0.0064 | -0.004 ± 0.011 | -0.033 ± 0.023 | -0.027 ± 0.0042 | -0.052 ± 0.0028 | 0.0185 ± 0.026 | 0.003 ± 0.016 | -0.003 ± 0.035 | 0.0055 ± 0.023
4H:CD62P/P-selectin | -0.0295 ± 0.073 | -0.047 ± 0.042 | 0.0475 ± 0.023 | 0.0035 ± 0.067 | -0.0255 ± 0.013 | -0.0355 ± 0.00071 | -0.017 ± 0.03 | -0.02 ± 0.028 | -0.0205 ± 0.04 | -0.004 ± 0.064 | -0.003 ± 0.051 | -0.013 ± 0.054 | 0.0215 ± 0.032 | 0.0425 ± 0.037 | 0.0275 ± 0.022 | -0.0165 ± 0.022 | -0.217 ± 0.06 | 0.025 ± 0.055 | 0.0285 ± 0.005 | -0.001 ± 0.065 | 0.0815 ± 0.023 | -0.034 ± 0.051 | 0.062 ± 0.0042 | 0.016 ± 0.027 | 0 ± 0.045
lMphg:CD69 | 0.005 ± 0.057 | -0.038 ± 0.025 | -0.011 ± 0.062 | -0.004 ± 0.0057 | -0.0495 ± 0.11 | -0.052 ± 0.071 | -0.064 ± 0.082 | -0.0825 ± 0.08 | -0.039 ± 0.041 | -0.034 ± 0.04 | -0.065 ± 0.054 | -0.073 ± 0.025 | -0.004 ± 0.062 | -0.0055 ± 0.086 | -0.071 ± 0.0014 | -0.124 ± 0.026 | -0.256 ± 0.058 | 0.0085 ± 0.067 | -0.031 ± 0.0085 | -0.049 ± 0.024 | -0.053 ± 0.016 | -0.0065 ± 0.042 | -0.005 ± 0.021 | -0.01 ± 0.044 | -0.019 ± 0.058
BE3C:Keratin 8/18 | -0.002 ± 0.057 | 0.005 ± 0.045 | -0.008 ± 0.0028 | 0 ± 0.017 | -0.014 ± 0.0099 | -0.007 ± 0.0085 | -0.0185 ± 0.0092 | 0.0005 ± 0.0064 | -0.007 ± 0.0085 | 0.001 ± 0.0071 | -0.0185 ± 0.00071 | -0.0085 ± 0.019 | -0.01 ± 0.013 | 0.0035 ± 0.012 | -0.008 ± 0.0042 | -0.0145 ± 0.00071 | -0.019 ± 0.0028 | -0.01 ± 0.0042 | 0 ± 0.0071 | -0.0025 ± 0.015 | 0.0095 ± 0.0092 | -0.029 ± 0.03 | 0.0025 ± 0.005 | -0.0235 ± 0.021 | -0.0005 ± 0.019
BE3C:CXCL10/IP-10 | 0.0055 ± 0.026 | 0.018 ± 0.02 | -0.011 ± 0.0057 | 0.0125 ± 0.019 | 0.029 | 0.041 ± 0.02 | 0.032 ± 0.031 | 0.022 ± 0.021 | -0.006 ± 0.0028 | 0.0015 ± 0.0021 | -0.0095 ± 0.0078 | -0.0125 ± 0.018 | -0.0095 ± 0.012 | -0.011 ± 0.025 | -0.006 ± 0.0028 | -0.0315 ± 0.0035 | -0.118 ± 0.0071 | -0.011 ± 0.0028 | -0.0205 ± 0.011 | -0.0545 ± 0.015 | -0.462 ± 0.011 | -0.006 ± 0.0057 | 0.0065 ± 0.046 | -0.013 ± 0.016 | 0.0195 ± 0.054
HDF3CGF:CD106/VCAM-1 | -0.047 ± 0.028 | -0.023 ± 0.034 | -0.0015 ± 0.037 | -0.009 ± 0.0057 | 0.0015 ± 0.0021 | 0.017 ± 0.011 | 0.02 ± 0.023 | -0.0275 ± 0.011 | 0.021 ± 0.1 | 0.034 ± 0.11 | 0.034 ± 0.093 | 0.0135 ± 0.064 | 0.027 ± 0.11 | -0.0225 ± 0.029 | -0.0455 ± 0.1 | -0.089 ± 0.037 | -0.228 ± 0.0014 | 0.029 ± 0.048 | -0.0075 ± 0.043 | -0.0005 ± 0.074 | -0.067 ± 0.096 | -0.046 ± 0.013 | -0.0295 ± 0.069 | -0.043 ± 0.03 | -0.029 ± 0.038
SAg:CXCL9/MIG | -0.001 ± 0.028 | -0.003 ± 0.0057 | 0.0085 ± 0.0021 | 0.002 ± 0.024 | -0.002 ± 0.013 | 0.007 ± 0.0071 | 0.002 ± 0.0085 | 0.015 ± 0.0042 | 0.003 ± 0.0057 | -0.002 ± 0.018 | -0.0035 ± 0.015 | -0.0045 ± 0.012 | -0.0025 ± 0.015 | 0.0075 ± 0.019 | 0.007 ± 0.0014 | -0.002 ± 0.0028 | -0.005 ± 0.0014 | -0.004 ± 0.0085 | -0.0035 ± 0.013 | -0.001 ± 0.013 | -0.0025 ± 0.0021 | -0.0125 ± 0.00071 | -0.0085 ± 0.0078 | 0.006 ± 0.013 | 0.0005 ± 0.0021
lMphg:IL-1alpha | 0.0115 ± 0.079 | 0.0215 ± 0.044 | -0.0115 ± 0.025 | 0.003 ± 0.044 | 0.018 ± 0.018 | 0.0205 ± 0.0078 | 0.016 ± 0.018 | 0.0385 ± 0.026 | -0.001 ± 0.0099 | 0.0395 ± 0.05 | 0.0235 ± 0.035 | 0.0215 ± 0.039 | 0.0225 ± 0.063 | 0.0125 ± 0.067 | 0.0555 ± 0.049 | 0.103 ± 0.021 | 0.149 ± 0.067 | 0.018 ± 0.021 | 0.005 ± 0.065 | 0.014 ± 0.027 | 0.0635 ± 0.046 | 0.026 ± 0.042 | 0.006 ± 0.071 | -0.0155 ± 0.016 | 0.038 ± 0.037

No new results follow: an excerpt of the list.
Test System | level (log10) ([1]; 740 nM) | level (log10) ([1]; 2200 nM) | level (log10) [2] | level (log10) [3] | level (log10) ([4]; 740 nM) | level (log10) ([4]; 2200 nM) | level (log10) ([4]; 6700 nM) | level (log10) ([4]; 20000 nM) | level (log10) ([5]; 2200 nM) | level (log10) ([5]; 6700 nM) | level (log10) ([5]; 20000 nM) | level (log10) ([5]; 60000 nM) | level (log10) [6] | level (log10) [7] | level (log10) ([8]; 2200 nM) | level (log10) ([8]; 6700 nM) | level (log10) ([8]; 20000 nM) | level (log10) [9] | level (log10) ([10]; 2200 nM) | level (log10) ([10]; 6700 nM) | level (log10) ([10]; 20000 nM) | level (log10) [11] | level (log10) [12] | level (log10) [13] | level (log10) [14]
HDF3CGF:CXCL8/IL-8 | 0.0065 ± 0.021 | -0.0235 ± 0.021 | -0.0025 ± 0.013 | -0.002 ± 0.0014 | -0.0065 ± 0.0092 | -0.0055 ± 0.0021 | -0.004 ± 0.0042 | 0.0025 ± 0.005 | 0.001 ± 0.013 | -0.01 ± 0.014 | -0.007 ± 0.013 | 0.008 ± 0.037 | -0.003 ± 0.0071 | 0.009 ± 0.021 | 0.0125 ± 0.0035 | 0.025 ± 0.0071 | 0.02 ± 0.0028 | 0.0035 ± 0.011 | -0.002 ± 0.013 | -0.0225 ± 0.011 | 0.0015 ± 0.005 | -0.0025 ± 0.022 | -0.001 ± 0.0042 | 0.0025 ± 0.0021 | -0.0015 ± 0.012
CASM3C:IL-6 | 0.034 ± 0.048 | -0.0065 ± 0.026 | 0.0105 ± 0.032 | 0.0715 ± 0.036 | 0.033 ± 0.088 | -0.041 ± 0.014 | -0.035 ± 0.0042 | 0.0345 ± 0.028 | 0.0115 ± 0.043 | -0.003 ± 0.011 | -0.014 ± 0.0014 | 0.006 ± 0.017 | 0.007 ± 0.037 | 0.0025 ± 0.054 | 0.01 ± 0.054 | -0.0045 ± 0.025 | 0.033 ± 0.0085 | 0.008 ± 0.052 | -0.002 ± 0.055 | -0.0115 ± 0.00071 | -0.0325 ± 0.019 | 0.0095 ± 0.052 | 0.003 ± 0.024 | -0.0085 ± 0.039 | -0.0305 ± 0.0035
